Laboratory results reported in publication PMC8564726, “Heterodimerization of H3K9 histone methyltransferases G9a and GLP activates methyl reading and writing capabilities” (The Journal of Biological Chemistry, 2021).
Results are given in words; binding and its absence hold for the method and conditions named. In cells and extracts the contact can be indirect. Some entries that bind do so weakly or less than the wild type.

Chains of the proteins cited; added tags and fusions are not shown.
UniProt Q9Z148: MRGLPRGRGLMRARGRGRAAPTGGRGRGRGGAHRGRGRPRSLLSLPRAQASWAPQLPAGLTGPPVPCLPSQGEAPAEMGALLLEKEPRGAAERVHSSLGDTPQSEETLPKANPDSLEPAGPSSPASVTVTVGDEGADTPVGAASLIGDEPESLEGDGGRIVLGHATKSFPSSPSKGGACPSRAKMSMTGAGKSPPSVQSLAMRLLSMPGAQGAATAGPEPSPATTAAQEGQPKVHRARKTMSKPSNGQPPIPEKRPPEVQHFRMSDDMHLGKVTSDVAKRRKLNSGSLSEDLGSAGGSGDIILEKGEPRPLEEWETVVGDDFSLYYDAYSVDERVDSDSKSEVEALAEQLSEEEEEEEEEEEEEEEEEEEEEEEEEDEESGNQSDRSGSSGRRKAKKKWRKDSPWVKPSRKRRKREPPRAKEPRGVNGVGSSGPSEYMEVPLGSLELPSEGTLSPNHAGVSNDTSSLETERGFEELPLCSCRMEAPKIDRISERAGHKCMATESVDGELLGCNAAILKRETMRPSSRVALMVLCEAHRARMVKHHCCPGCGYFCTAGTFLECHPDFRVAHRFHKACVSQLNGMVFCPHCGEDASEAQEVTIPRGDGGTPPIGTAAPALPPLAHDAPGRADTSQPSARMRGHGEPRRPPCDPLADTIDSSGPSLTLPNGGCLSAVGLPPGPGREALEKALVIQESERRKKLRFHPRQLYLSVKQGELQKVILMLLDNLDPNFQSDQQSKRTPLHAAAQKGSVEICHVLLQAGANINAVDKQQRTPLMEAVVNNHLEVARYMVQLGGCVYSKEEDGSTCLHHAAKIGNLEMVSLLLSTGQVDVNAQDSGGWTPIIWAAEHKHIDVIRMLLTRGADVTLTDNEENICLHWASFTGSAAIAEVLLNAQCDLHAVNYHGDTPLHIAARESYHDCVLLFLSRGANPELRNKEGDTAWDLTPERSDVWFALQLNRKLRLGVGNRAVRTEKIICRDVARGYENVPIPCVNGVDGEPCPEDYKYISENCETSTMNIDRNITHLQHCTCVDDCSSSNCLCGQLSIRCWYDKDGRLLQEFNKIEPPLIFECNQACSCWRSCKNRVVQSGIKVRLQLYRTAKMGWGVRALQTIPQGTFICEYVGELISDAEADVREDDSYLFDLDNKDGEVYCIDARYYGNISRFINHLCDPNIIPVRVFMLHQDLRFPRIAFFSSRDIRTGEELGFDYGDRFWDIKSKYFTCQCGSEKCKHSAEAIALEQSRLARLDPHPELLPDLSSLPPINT

Target: full-length G9a (UniProt Q9Z148)
Assay: pull-down; full-length proteins produced in insect cells; complex retention after sequential affinity purification

## full-length G9a (from UniProt Q9Z148 1-1263) (enzyme)
  binding: binds
